For this experiment, the target named is T1, Small heterodimer partner (SHP; NR0B2) (mouse (endogenous in liver)) (UniProt Q62227).
T1 sequence: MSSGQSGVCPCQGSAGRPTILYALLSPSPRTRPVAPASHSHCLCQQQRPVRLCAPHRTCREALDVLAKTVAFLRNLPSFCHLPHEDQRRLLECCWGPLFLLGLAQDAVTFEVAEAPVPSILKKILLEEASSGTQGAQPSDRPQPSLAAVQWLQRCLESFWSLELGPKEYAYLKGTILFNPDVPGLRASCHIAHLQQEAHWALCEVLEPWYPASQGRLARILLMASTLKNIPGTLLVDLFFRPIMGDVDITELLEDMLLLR
Description: co-IP; total liver protein extracts of WT and db/db mice, with or without melatonin, immunoprecipitated with SHP and CREBH antibodies (Santa Cruz) and immunoblotted; endogenous proteins. In general terms: Immunoblotting shows a protein as a band on a membrane.

Results are given in words; binding and its absence hold for the method and conditions named. Binding seen in cells or lysates may run through a third protein. Some results given as binding are weak or reduced against the parent protein; the word gives no strength.

B1: Cyclic adenosine monophosphate (cAMP)-responsive element-binding protein H (CREBH) (protein, UniProt Q91XE9 1-479)
chain: MDGDIAAGKMASPVCAMAPLDSMEVLDLLFDRQDGILRNVELAEGWILAREEQKVLLNSDSDEFLNCILGPGDSDPSSPLWSPADSDSGISEDLPSDPQDTPPRSGTEPANTVARCHTREQGKGPCPSYLPSTPCPEPPRTQVQESSVAIDLDMWSTDTLYPEEPAGSPSRFNLTVKELLLSGGSGDLQQHSLAASQLLGPGSGHCQELVLTEDEKKLLAKEGVTLPTQLPLTKYEERVLKKIRRKIRNKQSAQESRKKKKEYIDGLENRMSACTAQNQELQRKVLHLEKQNLSLLEQLKHLQALVVQSTSKPAHAGTCIAVLLLSFALIILPSISPFNSNKVDSPGDFVPVRVFSRTLHNHAASRVAPDVTPGSEVPGPWPDVGTPHKGPSSGGLSADWGNFLEIPMLDNLTEELDNSTLVLANSTEDLGRATLLDWVASEPLLSPGRVGLEIPGEMWLSWVPRWLRVRLVQDALGVL
Regarding B1, the binding entry was “binds”.

The values above are taken from paper PMC10393991.
